At least one structure is not confirmed: it was looked up by name or label, or the drawing left a doubt.
Key:
[1] = tested on: tet operator-bearing hCMV major immediate-early enhancer-promoter; experiment: Luciferase reporter (pCMVtetOGL2) in transfected Vero cells; type: cell-based, African green monkey; conditions: tetracycline 1 μg/ml
[2] = tested on: tet repressor; experiment: Release of tetR-mediated repression by tetracycline, hEGF ELISA in transfected Vero cells; type: cell-based, African green monkey; conditions: for reversal of tetR-mediated repression of hEGF expression: 20-44 hours post-transfection
[3] = tested on: HSV-1; conditions: tetracycline 1 then 5 micrograms per ml; 48 hours post transfection

## CN(C)[C@@H]1C(O)=C(C(N)=O)C(=O)[C@@]2(O)C(O)=C3C(=O)c4c(O)cccc4[C@@](C)(O)[C@H]3C[C@@H]12 [tetracycline]
[1]
  release of tetR repression of luciferase expression: released efficiently
[2]; tetracycline 0.1 μg/ml
  reversal of tetR-mediated repression of hEGF expression: not sufficient to reverse
[2]; tetracycline 1 μg/ml
  reversal of tetR-mediated repression of hEGF expression: efficiently reversed
[2]; tetracycline 1 μg/ml, pCMVtetOEGF + pcDNA3-tetR
  tetR-mediated repression of EGF expression in the presence of tetracycline: Little or no repression
[3]
  HSV-1 plaque forming units with pCMVtetOUL9-C571 and tetR in the presence of tetracycline: significantly reduced
